Laboratory results published in paper PMC8204694.

By UniProt entry, the sequences of proteins in these tests, tags left out. Where a name states a change or a piece, a line headed by the entry shows the natural chain unless it says otherwise.
UniProt Q74M69: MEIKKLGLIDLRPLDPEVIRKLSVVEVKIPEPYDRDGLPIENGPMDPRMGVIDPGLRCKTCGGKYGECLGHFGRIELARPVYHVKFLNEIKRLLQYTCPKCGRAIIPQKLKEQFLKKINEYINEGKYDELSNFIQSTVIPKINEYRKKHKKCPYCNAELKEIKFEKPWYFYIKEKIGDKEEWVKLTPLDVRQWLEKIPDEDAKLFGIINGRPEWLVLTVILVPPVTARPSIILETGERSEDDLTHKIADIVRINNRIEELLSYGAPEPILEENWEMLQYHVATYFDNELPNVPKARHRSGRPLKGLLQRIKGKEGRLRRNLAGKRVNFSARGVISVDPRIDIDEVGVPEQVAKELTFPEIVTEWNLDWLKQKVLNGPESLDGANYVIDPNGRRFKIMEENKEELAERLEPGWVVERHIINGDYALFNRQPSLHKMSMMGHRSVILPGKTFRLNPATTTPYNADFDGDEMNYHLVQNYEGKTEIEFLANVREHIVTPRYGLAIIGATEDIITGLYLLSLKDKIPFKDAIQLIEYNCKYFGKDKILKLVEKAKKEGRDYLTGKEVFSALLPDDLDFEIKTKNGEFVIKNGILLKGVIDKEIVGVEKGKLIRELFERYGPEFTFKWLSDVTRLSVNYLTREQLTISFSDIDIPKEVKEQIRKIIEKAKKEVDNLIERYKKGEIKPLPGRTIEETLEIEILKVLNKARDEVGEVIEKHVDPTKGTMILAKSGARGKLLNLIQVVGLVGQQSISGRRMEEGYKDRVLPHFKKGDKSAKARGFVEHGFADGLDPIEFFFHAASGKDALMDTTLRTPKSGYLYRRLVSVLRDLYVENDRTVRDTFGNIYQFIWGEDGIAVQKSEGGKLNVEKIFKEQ
UniProt Q74M82: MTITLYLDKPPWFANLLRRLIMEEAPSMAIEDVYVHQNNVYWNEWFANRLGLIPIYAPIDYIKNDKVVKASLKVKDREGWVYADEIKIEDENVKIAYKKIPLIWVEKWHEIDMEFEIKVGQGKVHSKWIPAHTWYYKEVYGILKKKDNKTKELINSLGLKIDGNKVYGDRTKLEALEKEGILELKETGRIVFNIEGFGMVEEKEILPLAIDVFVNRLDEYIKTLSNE
UniProt Q74MB5: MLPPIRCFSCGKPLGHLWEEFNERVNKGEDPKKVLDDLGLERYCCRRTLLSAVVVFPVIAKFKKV
UniProt Q74M66: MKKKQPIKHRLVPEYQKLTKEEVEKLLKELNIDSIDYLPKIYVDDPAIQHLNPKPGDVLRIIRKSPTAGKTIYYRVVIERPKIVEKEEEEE
UniProt Q74NB5: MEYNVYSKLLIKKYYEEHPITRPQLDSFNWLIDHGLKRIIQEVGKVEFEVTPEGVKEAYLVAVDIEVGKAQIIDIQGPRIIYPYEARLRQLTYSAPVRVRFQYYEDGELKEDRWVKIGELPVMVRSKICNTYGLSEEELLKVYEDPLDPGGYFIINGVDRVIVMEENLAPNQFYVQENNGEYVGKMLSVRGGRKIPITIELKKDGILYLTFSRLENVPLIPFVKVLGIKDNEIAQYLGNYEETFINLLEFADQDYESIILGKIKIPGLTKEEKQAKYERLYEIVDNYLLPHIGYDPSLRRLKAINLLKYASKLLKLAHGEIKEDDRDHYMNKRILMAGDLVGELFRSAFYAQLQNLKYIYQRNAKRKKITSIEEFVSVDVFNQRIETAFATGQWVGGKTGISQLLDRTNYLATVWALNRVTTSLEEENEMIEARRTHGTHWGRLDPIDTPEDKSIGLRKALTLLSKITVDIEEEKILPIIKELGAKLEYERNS
UniProt Q74MN9: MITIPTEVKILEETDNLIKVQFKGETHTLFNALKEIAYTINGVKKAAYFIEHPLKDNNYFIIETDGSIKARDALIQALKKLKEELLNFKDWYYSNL
UniProt Q74MN2: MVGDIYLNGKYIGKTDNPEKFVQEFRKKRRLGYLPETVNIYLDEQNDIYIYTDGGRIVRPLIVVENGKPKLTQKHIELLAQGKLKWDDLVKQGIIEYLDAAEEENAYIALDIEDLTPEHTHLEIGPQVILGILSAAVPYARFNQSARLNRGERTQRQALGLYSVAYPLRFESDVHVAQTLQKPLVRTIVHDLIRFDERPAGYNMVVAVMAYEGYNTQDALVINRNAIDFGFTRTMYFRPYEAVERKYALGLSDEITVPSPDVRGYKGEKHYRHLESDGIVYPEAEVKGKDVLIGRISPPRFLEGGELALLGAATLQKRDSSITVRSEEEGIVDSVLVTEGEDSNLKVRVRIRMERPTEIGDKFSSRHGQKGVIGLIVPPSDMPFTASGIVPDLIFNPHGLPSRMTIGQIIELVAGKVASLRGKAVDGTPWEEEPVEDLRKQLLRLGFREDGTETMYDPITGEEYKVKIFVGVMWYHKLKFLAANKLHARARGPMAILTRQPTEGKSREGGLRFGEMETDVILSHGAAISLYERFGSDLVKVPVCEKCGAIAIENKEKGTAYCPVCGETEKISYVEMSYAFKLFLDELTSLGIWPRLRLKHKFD

Target: Nanoarchaeum equitans RNA polymerase subunit A′ (Nanoarchaeum equitans) (UniProt Q74M69)
Assay: SEC; subunits mixed in 8 M urea (large subunits equimolar, small subunits in at least four-fold excess), refolded by dialysis; assembly reaction run on a Superose-6 size-exclusion column at 0.5 ml/min; fractions on a silver-stained Bis/Tris 4-12% SDS gel and tested for transcriptional activity; both purified

| Substance | binding |
| --- | --- |
| Nanoarchaeum equitans RNA polymerase subunit D (from UniProt Q74M82) | binds |
| Nanoarchaeum equitans RNA polymerase subunit N (from UniProt Q74MB5) | binds |
| Nanoarchaeum equitans RNA polymerase subunit H (from UniProt Q74M66) | binds |
| Nanoarchaeum equitans RNA polymerase subunit B″ (from UniProt Q74NB5) | binds |
| Nanoarchaeum equitans RNA polymerase subunit L (from UniProt Q74MN9) | binds |
| Nanoarchaeum equitans RNA polymerase subunit B′ (from UniProt Q74MN2) | binds |

Results are given in words; binding and its absence hold for the method and conditions named. Binding calls can cover weak binding; strength is not graded here.
